Laboratory results reported in PubChem BioAssay AID1347075 (National Center for Advancing Translational Sciences (NCATS), 2019).
About 5,500 (1.4%) of roughly 400,000 compounds were called active. The shares of active, inactive and inconclusive entries below differ from those in the screen. The call rests on the fitted dose curve; in most records, active means well fitted cell-killing curve with a large enough effect; inconclusive means small, poorly fitted or top-dose-only effect, or effect the other way; inactive means flat fitted curve, though single readings scatter. Where the call is inconclusive, the potency comes from a doubtful curve fit.

assay: qHTS assay for MDR1-selective chemotherapeutics: Primary screen using the parental adenocarcinoma cell KB-3-1; conditions: KB-3-1 viability, CellTiter-Glo ATP luminescence, 72 h; activity change, negative = cytotoxic: at 46.1 µM (top of the series); further: nearly all actives have a fitted effect of over 60% in size
In short: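 Multi-concentration cytotoxicity screen in KB-3-1 cells grown in DMEM lacking phenol red with 10% FBS. After 72 h at 37 °C with compound, ATP-dependent luminescence was recorded.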
On the % scale 0 is the no-effect control and ±100 the full control effect; potency means the concentration at half of the fitted maximal effect.

SMILES | Potency | activity change, negative = cytotoxic
CC1=C(/C=N/Nc2ccc([N+](=O)[O-])cc2[N+](=O)[O-])C(C)(C)CCC1 | active: 16.4 µM | –
CCOC(=O)c1sc2nc3c(SCC(=O)O)cc(C(=O)c4ccccc4O)cn3c(=O)c2c1C | inactive | –
O=C(C1CC(=O)N(c2ccc(F)cc2)C1)N1CCCCCC1 (configuration not stated) | inconclusive: 29.1 µM [rising, single point] | –
Cc1cc(NC(=O)/C=C/c2cccc(Cl)c2)n(-c2nc3ccccc3[nH]2)n1 | inconclusive: 23.1 µM [cytotoxic, single point] | –
Cc1ccc(S(=O)(=O)CCC(=O)NCc2ccccc2)cc1 | inconclusive: 3.66 µM [rising, partial curve, poor fit] | –
CCOC(=O)c1c(-c2cc(OC)c(OC)c(OC)c2)csc1N | inconclusive: 18.4 µM [cytotoxic, partial curve] | –
COCc1cc(=O)[nH]c(/N=C(\N)Nc2cccc(Cl)c2)n1 | inconclusive: 29.1 µM [cytotoxic, single point] | –
CCOC(=O)C1=C(CCl)NC(=O)NC1c1ccc2c(c1)OCO2 (configuration not stated) | inconclusive: 25.9 µM [cytotoxic, partial curve, poor fit] | –
COc1ccc2[nH]c(=O)c(CN(C(=O)NC3CCCCC3)C3CCCCC3)cc2c1 | inconclusive: 7.31 µM [rising, partial curve, poor fit] | –
O=C(Nc1ccc(-c2nc3ccccc3o2)cc1)c1cc(-n2cnnc2)ccc1Cl | inconclusive: 8.2 µM [cytotoxic, partial curve] | –
O=C(NCCS(=O)(=O)N1CCN(Cc2ccccc2)CC1)c1ccc(F)cc1 | inactive | –
Cc1cccc(NC(=O)Cn2nnc(C(=O)NCc3cccs3)c2N)c1 | inactive | –
O=C(CNC(=O)c1ccc(Br)o1)NCc1ccc(Cl)cc1 | inactive | –
COc1ccc(Cl)cc1Cn1c(C)c(C(=O)N(C)Cc2ccc(F)cc2)sc1=O | inactive | –
Cc1cc(C(=O)N2CCc3ccccc32)n(-c2ccccc2)n1 | active: 10.3 µM | –
Cc1ccc(NS(=O)(=O)c2cc3c4c(cccc4c2)C(=O)NC3=O)cc1 | inconclusive: 20.6 µM [cytotoxic, single point] | –
O=c1c2ccc([N+](=O)[O-])cc2ncn1CCOc1cccc(Br)c1 | inactive | –
CCc1n[nH]c(=S)n1/N=C/c1cccc2ccccc12 | active: 6.51 µM | –
COc1ccc(C(=O)Nc2ccc(Cl)c(S(=O)(=O)Nc3ccccc3OC)c2)cc1 | inconclusive: 3.26 µM [cytotoxic, full curve] | –
Cc1cc(C(=O)CCl)c(C)n1-c1ccon1 | inconclusive: 29.1 µM [cytotoxic, single point] | –
OCCN1CCN(c2cc(-c3ccccc3)c3ccccc3n2)CC1 | inconclusive: 29.1 µM [cytotoxic, single point] | –
O=C1CCSc2ccc(Cl)cc2N1Cc1ccc(Cl)cc1 | inconclusive: 18.4 µM [cytotoxic, single point] | –
Cc1cc(C(=O)CSc2nc3ccccc3[nH]2)c(C)n1Cc1ccco1 | inconclusive: 23.1 µM [cytotoxic, partial curve, poor fit] | –
COCCNC(=S)N/N=C(\C)c1ccc(Cl)s1 | inactive | –

Structures shown so far containing an aryl thioether with sulfur outside any ring, in the order listed:
SMILES | Potency | activity change, negative = cytotoxic
CCOC(=O)c1sc2nc3c(SCC(=O)O)cc(C(=O)c4ccccc4O)cn3c(=O)c2c1C | inactive | –
Cc1cc(C(=O)CSc2nc3ccccc3[nH]2)c(C)n1Cc1ccco1 | inconclusive: 23.1 µM [cytotoxic, partial curve, poor fit] | –

The listing continues:

SMILES | Potency | activity change, negative = cytotoxic
CN1C[C@@H]2C(c3ccc(C(F)(F)F)cc3)C3(c4cccnc4)CC2(C3)[C@H]1c1ccccc1 (some centres not stated) | inactive | –
O=[N+]([O-])c1cc(C(F)(F)F)ccc1N1CCC(O)CC1 | inactive | –
CCCCOC(=O)c1cc(=O)[nH]c2ccc(C)cc12 | active: 14.6 µM | –
COC(=O)c1cc2sccc2n1CC(=O)Nc1ccc(C)cc1C | inactive | –
CCCCCCCCCCCC(=O)NC(C(=O)OCC)C(O)c1cccc([N+](=O)[O-])c1 (configuration not stated) | inconclusive: 20.6 µM [cytotoxic, single point] | –
Cc1nc(N/N=C/c2ccccn2)sc1C | active: 25.9 µM | –
CC(C)(C)C(=O)c1cnc(Nc2ccccc2Cl)s1 | inconclusive: 20.6 µM [cytotoxic, partial curve, poor fit] | –
Cc1ccccc1-n1c(C)nnc1SCC(=O)NCC1CCCO1 (configuration not stated) | inactive | –
COc1ccc(S(=O)(=O)N2CCN(CC(=O)N3CCc4ccccc4C3)CC2)cc1OC | inactive | –
Cc1cc(Br)c(OCc2ccc(C(=O)N/N=C3\CC4CC=CC34)cc2)c(Br)c1 (configuration not stated) | inactive | –
CC(C)C[C@H](N)c1nnc(S(=O)(=O)Cc2ccc(F)cc2)o1 | inconclusive: 29.1 µM [cytotoxic, single point] | –
COCCCn1c(SCC(=O)Nc2oc(C)c3c(C)n[nH]c(=O)c23)nc2sc3c(c2c1=O)CCC3 | inconclusive: 11.6 µM [rising, partial curve, poor fit] | –
Cc1ccc(C)c2nc(Cl)c(C3NC(=O)c4ccccc4N3)cc12 (configuration not stated) | inconclusive: 32.6 µM [cytotoxic, single point] | –
Cc1[nH]c2ccccc2c1CCNC(=O)c1c(N)no[n+]1[O-] | – | inconclusive: 8.48%
COc1cccc(CNC(=O)c2ccc3nc(-c4ccccc4)c(-c4ccccc4)nc3c2)c1OC | inconclusive: 2.31 µM [cytotoxic, partial curve, poor fit] | –
COc1ccccc1C1CC(=O)Nc2cc(C)c(C)cc21 (configuration not stated) | active: 16.4 µM | –
CCC(C)Sc1oc(-c2ccco2)nc1S(=O)(=O)c1ccc(Cl)cc1 (configuration not stated) | inactive | –
CCC1NC(=S)N(C2CCCCC2)C1=O (configuration not stated) | inactive | –
Cc1nn(-c2ccccc2)c(N2CCCC2)c1/C=N/NC(=O)c1cc(-c2cccnc2)nc2ccccc12 | inconclusive: 18.4 µM [cytotoxic, single point] | –
COc1ccc(Nc2nnc(-c3ccc(C)c(S(=O)(=O)NCc4nc5ccccc5[nH]4)c3)c3ccccc23)cc1 | inconclusive: 29.1 µM [cytotoxic, single point] | –
Clc1ccc(-c2csc(-c3nc(-c4ccc(Br)s4)cs3)n2)cc1 | – | inconclusive: 31.5%
O=C(O)c1cccc(C(=O)Cc2ccccc2)c1 | inactive | –
CC(=O)NCCNC(=O)C1(C)Cc2c(-c3ccccc3)ccnc2O1 (configuration not stated) | inactive | –
Cc1[nH]ccc2cc3nc4ccccc4c3cc12 | inconclusive: 13 µM [cytotoxic, partial curve] | –

SMILES | Potency | activity change, negative = cytotoxic
FC(F)(F)c1cccc(NC(=S)Nc2cccc(Cl)c2)c1 | inconclusive: 29.1 µM [cytotoxic, single point] | –
Cc1ccccc1C(=O)N1CCN(c2ncnc3c2cnn3-c2ccccc2)CC1 | inconclusive: 18.4 µM [cytotoxic, single point] | –
COc1ccc(-n2c(CCc3ccccc3)nnc2SCC(=O)c2ccccc2)cc1 | inconclusive: 29.1 µM [cytotoxic, single point] | –
Cc1onc(-c2ccccc2)c1C(=O)NCCc1ccncc1 | inactive | –
CCOC(=O)N1CCC(N2Cc3cccc(C(=O)Nc4ccc(CC)cc4)c3C2=O)CC1 | inconclusive: 20.6 µM [cytotoxic, single point] | –
Cc1ccccc1NS(=O)(=O)c1ccc(NS(=O)(=O)c2cccs2)cc1 | inconclusive: 7.31 µM [rising, partial curve] | –
CCN(CC)S(=O)(=O)c1ccc2[nH]cc(C(=O)NCCCN3CCCCC3)c(=O)c2c1 | inconclusive: 14.6 µM [rising, single point] | –
Cc1ccc(N2CCN(C(=S)c3ccc(-c4cccc([N+](=O)[O-])c4)o3)CC2)cc1 | inconclusive: 29.1 µM [rising, partial curve, poor fit] | –
Cc1ccc(S(=O)(=O)N2CCCC2C(=O)Nc2nc3ccccc3s2)cc1 (configuration not stated) | inconclusive: 29.1 µM [cytotoxic, single point] | –
CC(=O)[C@]1(O)Cc2c(O)c3c(c(O)c2[C@@H](O[C@H]2C[C@H](N)[C@H](O)[C@H](C)O2)C1)C(=O)c1ccccc1C3=O | active: 0.0731 µM | –
CCCOC(=O)c1ccc(Oc2c(-c3ccc(OC)cc3O)n[nH]c2C)cc1 | inconclusive: 23.1 µM [cytotoxic, single point] | –
CC(C)(C)OC(=O)N1CCN(C(=O)OCC2c3ccccc3-c3ccccc32)CC1C(=O)O (configuration not stated) | inactive | –
O=C(COc1ccc(Br)cc1)NCCCNC(=O)c1cccnc1 | inactive | –
O=C(/C=C/c1cccc([N+](=O)[O-])c1)NCCSCc1ccc(Cl)cc1 | inconclusive: 14.6 µM [cytotoxic, single point] | –
Cc1cc(O)c(/C=N/Nc2ccc(F)cc2)c(=O)o1 | inconclusive: 23.1 µM [cytotoxic, single point] | –
Cc1ccc(NC(=O)C2CCC(CNS(=O)(=O)c3ccc4c(c3)CCCC(=O)N4)CC2)cc1F (configuration not stated) | inconclusive: 16.4 µM [cytotoxic, partial curve, poor fit] | –
O=C(CNC1=NCCS1)c1c[nH]c2ccccc12 | inconclusive: 23.1 µM [cytotoxic, single point] | –
Brc1ccccc1OCCN1CCCC1 | inactive | –
COc1ccc(-n2c(CNc3ccc(C)cc3)nnc2SCC(=O)Nc2nc(-c3ccccc3)cs2)cc1 | inactive | –
Brc1ccc2ncnc(Nc3ccc(N4CCOCC4)cc3)c2c1 | inconclusive: 23.1 µM [cytotoxic, single point] | –
COc1ccc(C2C(C(=O)Nc3cccc(C)n3)CCC(=O)N2c2ccc(OC)cc2)cc1 (configuration not stated) | inactive | –
Cc1cc(C(=O)NNC(=S)NC(C)c2ccccc2)cs1 (configuration not stated) | inconclusive: 13 µM [cytotoxic, partial curve, poor fit] | –
CNc1nc(Cl)c(SC)c(NCc2cccc(OC)c2)n1 | inactive | –
Cc1nc(-c2ccccc2)nc2[nH]c(=O)n(-c3ccccc3)c(=O)c12 | inconclusive: 18.4 µM [cytotoxic, partial curve, poor fit] | –
